{"source": "PubChem BioAssay AID504834", "about": "(National Center for Advancing Translational Sciences (NCATS), 2011)", "note": "The whole screen tested about 320,000 compounds, of which about 22,000 (6.9%) were called active. Inconclusive means that the source gave no clear call. Such entries were picked first, then a sample of the others. The call rests on the fitted dose curve; in most records, active means well fitted inhibition curve with a large enough effect; inconclusive means small, poorly fitted or top-dose-only effect, or another doubt; inactive means no such curve, though single readings can be large or run the other way. Potencies beside an inconclusive call are fits to weak or partial responses and may not hold up. Potency means the concentration at half of the fitted maximal effect.", "data": [{"experiment": "Primary qHTS for delayed death inhibitors of the malarial parasite plastid, 96 hour incubation", "settings": "P. falciparum luciferase reporter growth; series mostly up to 28.7 µM", "summary_of_the_method": "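P. falciparum expressing integrated firefly luciferase, in erythrocytes at 2% hematocrit, 0.05% parasitemia, incubated with compounds 96 h at 37 C, 5% CO2. Growth inhibition read as loss of luminescence; two-generation exposure targets delayed-death apicoplast inhibitors.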", "values": [{"smiles": "Cc1cc(C)cc(Oc2coc3cc(OC(=O)c4cccnc4)ccc3c2=O)c1", "Potency": "inconclusive: 18.5 µM [inhibitor, single point]"}, {"smiles": "COc1ccc(O)c(/C=N/NC(=S)NCCc2ccccc2)c1", "Potency": "inconclusive: 20.8 µM [inhibitor, partial curve, poor fit]"}, {"smiles": "O=C(NNc1c2ccccc2nc2ccccc12)c1ccccc1Cl", "Potency": "inconclusive: 3.7 µM [inhibitor, partial curve, poor fit]"}, {"smiles": "COC(=O)CC(NC(=O)c1ccc(C)cc1)c1ccccc1", "note": "(stereo not drawn)", "Potency": "inactive"}, {"smiles": "CCC(=O)Nc1ccc(-c2ccc(N3CCC(C)CC3)nn2)cc1", "Potency": "inconclusive: 2.62 µM [inhibitor, partial curve, poor fit]"}, {"smiles": "CCN(CC(=O)Nc1ccc(NC(C)=O)cc1)C(=O)c1ccc(COc2ccccc2)o1", "Potency": "inconclusive: 13.1 µM [inhibitor, partial curve, poor fit]"}, {"smiles": "Cc1nc(NCCc2ccccc2F)c(C#N)c(C)c1[N+](=O)[O-]", "Potency": "inactive"}, {"smiles": "CSCCC(NS(=O)(=O)c1ccc2c(c1)OCCO2)C(=O)N(C)Cc1ccc(F)cc1", "note": "(stereo not drawn)", "Potency": "inconclusive: 14.7 µM [inhibitor, single point]"}, {"smiles": "CCCCn1c(N)c(N(CCOC)C(=O)c2ccc(N3CCCC3)c([N+](=O)[O-])c2)c(=O)[nH]c1=O", "Potency": "inactive"}, {"smiles": "COCCNC(=O)c1cc(-c2cccc(OC)c2)on1", "Potency": "inactive"}, {"smiles": "O=C(Nc1ccccc1Cl)C1CC(=O)N(c2ccccc2)C1", "note": "(stereo not drawn)", "Potency": "inactive"}, {"smiles": "O=C(O)c1ccccc1C(=O)Nc1ccc(Br)c2cccnc12", "Potency": "inconclusive: 9.28 µM [inhibitor, partial curve]"}, {"smiles": "CC(/C=C/c1ccc(Cl)o1)=C\\C(=O)O", "Potency": "active: 1.47 µM"}, {"smiles": "O=C(O)c1ccccc1Sc1c([N+](=O)[O-])cc(C(F)(F)F)cc1[N+](=O)[O-]", "Potency": "inactive"}, {"smiles": "O=C(Cc1cccc(NC(=O)C2CCN(C(=O)C3CCCCC3)CC2)c1)Nc1cccc(C(=O)N2CCCC2)c1", "Potency": "active: 10.4 µM"}, {"smiles": "CC1=C(C(=O)OCc2cc(C)on2)N2C(=O)[C@@H](NC(=O)OCc3cc(C)on3)[C@H]2SC1", "Potency": "inactive"}, {"smiles": "O=C(O)Cn1nc2ccccc2n1", "Potency": "inconclusive: 18.5 µM [inhibitor, single point]"}, {"smiles": "CN1CCN(CCOc2cccc(Cl)c2)CC1", "Potency": "active: 10.4 µM"}, {"smiles": "COC(=O)c1c(C)[nH]c(C(=O)OCc2ccc(F)cc2)c1C", "Potency": "inactive"}, {"smiles": "CC12CCC3C(CC=C4CC(O)CCC43C)C1C/C(=C\\c1cccc(F)c1)C2=O", "note": "(stereo not drawn)", "Potency": "active: 11.7 µM"}, {"smiles": "CCOC(=O)N1CCC2(CC1)C(C#N)=C(N)Oc1n[nH]c(C)c12", "Potency": "inconclusive: 18.5 µM [inhibitor, single point]"}, {"smiles": "Cc1ccc(C)c(S(=O)(=O)NCC(=O)NCc2ccco2)c1", "Potency": "inconclusive: 11.7 µM [inhibitor, partial curve, poor fit]"}, {"smiles": "COc1ccc(N2CCN(C(=O)CSc3nnc(-c4ccc5[nH]c(C)c(C)c5c4)o3)CC2)cc1", "Potency": "active: 3.29 µM"}, {"smiles": "CCOC(=O)N/N=C(\\C)c1ccc(Oc2ncccn2)cc1", "Potency": "inactive"}, {"smiles": "O=C(/C=C/c1ccc2c(c1)OCCO2)N1CCN(c2ccc(F)cc2)CC1", "Potency": "inactive"}, {"smiles": "Cc1cccc(N(C(=O)c2nsc(Cl)c2Cl)C(C(=O)NC2CCCC2)c2ccc(O)cc2)c1C", "note": "(stereo not drawn)", "Potency": "inconclusive: 10.4 µM [inhibitor, single point]"}, {"smiles": "CCCOc1ccc(-c2csc(N)n2)cc1[N+](=O)[O-]", "Potency": "inactive"}, {"smiles": "CC1CN(C(=O)N(C)C)CCN1C(=O)N(C)C", "note": "(stereo not drawn)", "Potency": "inconclusive: 18.5 µM [inhibitor, single point]"}, {"smiles": "COc1ccc(CCNC(=O)COC(=O)C2CC2C)cc1OC", "note": "(stereo not drawn)", "Potency": "inactive"}, {"smiles": "O=C(N/N=C/C=C/c1ccc2c(c1)OCO2)c1ccc([N+](=O)[O-])cc1", "Potency": "inactive"}, {"smiles": "O=C(Nc1ccc2c(c1)CCCN2C(=O)c1ccco1)c1cc([N+](=O)[O-])ccc1Cl", "Potency": "inconclusive: 11.7 µM [inhibitor, partial curve]"}, {"smiles": "CCS(=O)(=O)c1ccc2oc(SCC(=O)NC3CCCC(C)C3C)nc2c1", "note": "(stereo not drawn)", "Potency": "inconclusive: 11.7 µM [inhibitor, partial curve, poor fit]"}, {"smiles": "N#Cc1ccccc1S(=O)(=O)N1CCN(CC(O)c2ccccc2)CC1", "note": "(stereo not drawn)", "Potency": "inconclusive: 13.1 µM [inhibitor, single point]"}, {"smiles": "CC(NC(=O)c1cc(S(=O)(=O)N2CCOCC2)ccc1N1CCCC1)c1ccc(Cl)c(Cl)c1", "note": "(stereo not drawn)", "Potency": "inconclusive: 11.7 µM [inhibitor, partial curve]"}, {"smiles": "CC1CC1c1ccc(/C=C(\\C#N)C(=O)Nc2cc(Cl)ccc2Cl)o1", "note": "(stereo not drawn)", "Potency": "inconclusive: 18.5 µM [inhibitor, single point]"}, {"smiles": "O=C(CCS(=O)(=O)c1ccccc1)Nc1ccc2c(c1)OCO2", "Potency": "inconclusive: 4.15 µM [inhibitor, partial curve, poor fit]"}, {"smiles": "O=C(CSc1c2c(nc3ccccc13)CCC2)N1CCCC1", "Potency": "inconclusive: 11.7 µM [inhibitor, single point]"}, {"smiles": "CSCc1nc2scc(-c3ccccc3)c2c(=O)[nH]1", "Potency": "inactive"}, {"smiles": "COc1ccccc1-c1csc(Cc2nnc3n2CCCCC3)n1", "Potency": "inactive"}, {"smiles": "Cn1c(NCc2ccccc2)nc2c1c(=O)n(Cc1ccccc1)c(=O)n2C", "Potency": "active: 3.7 µM"}, {"smiles": "O=[N+]([O-])c1ccc(O)c(/C=N/n2cnc3ccccc32)c1", "Potency": "inconclusive: 2.08 µM [inhibitor, partial curve, poor fit]"}, {"smiles": "CCOc1c(Br)cc(CNc2ccc3c(c2)OCCO3)cc1OC", "Potency": "active: 0.828 µM"}, {"smiles": "Cn1c(=O)cc(SCC(=O)Nc2ccc3c(c2)OCO3)c2ccccc21", "Potency": "active: 2.94 µM"}, {"smiles": "CN1CCN(C(=O)c2cc(-c3ccco3)on2)CC1", "Potency": "inactive"}, {"smiles": "O=C(NCc1ccco1)C1CCN(C(=O)c2cc3sccc3n2Cc2ccc(Cl)cc2)CC1", "Potency": "inconclusive: 0.0208 µM [inhibitor, full curve, poor fit]"}, {"smiles": "CCOC(=O)C1(Cc2ccccc2)CCN(Cc2cn(CC(=O)OC)c3ccccc23)CC1", "Potency": "active: 5.22 µM"}, {"smiles": "COC(=O)c1cccc(N2C(=O)C3C4C=CC(CC4)C3C2=O)c1", "note": "(stereo not drawn)", "Potency": "inactive"}, {"smiles": "COc1cnc(SCc2c(Cl)cccc2Cl)nc1Cl", "Potency": "inconclusive: 18.5 µM [inhibitor, single point]"}]}]}
